Data as given in PubChem BioAssay AID504793 (Drosophila RNAi Screening Center, 2011).
The deposit covers about 23,000 reagents; shown is a random part of those that have a named target and a result. Over the whole deposit, 62 (0.27%) got an active call. 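Calls come from follow-up tests whose scores are not deposited, so confirmed genes may have low counts here; counts are not normalised per plate.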 Raw values vary from plate to plate and are shown uncorrected. Names joined by + are all predicted targets of the reagent.

Test: 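Genes required for cells to halt at G2/M after double-strand DNA breaks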 (primary screen)
Cell system: Drosophila S2R+ cells
Knock-down reagent: long dsRNA against Drosophila genes, about 0.25 µg dsRNA per well
Timing: 4 days of dsRNA, then 4 hours of drug before read-out
Challenge: doxorubicin 0.5 µM for 4 hours to cause double-strand breaks, in cells also given a low, harmless dose of dsRNA against nbs to sensitise the assay
Measured: 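Mitotic index as the number of phospho-histone H3-positive cells in each well following doxorubicin, given as raw counts without normalisation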
Direction: mitotic cells: higher = more cells in mitosis, weaker G2 arrest
Call rule: 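Genes are called active only when high mitotic counts were reproduced with independent dsRNAs and mitosis was checked for delay without damage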
Meaning of the calls: active = confirmed in follow-up tests; inactive = not confirmed

The first 12 entries, to show the layout:
predicted target | amplicon | mitotic cells, replicate 1 | mitotic cells, replicate 2 | Call
RhoGEF3 | DRSC08351 | 4 | – | inactive
RhoGEF3 | DRSC08352 | 6 | – | inactive
Coq6 | DRSC03040 | 6 | – | inactive
Coq6 | DRSC29622 | 9 | – | inactive
RNF220 | DRSC15652 | 9 | – | inactive
RNF220 | DRSC28017 | 7 | – | inactive
Rrp46 | DRSC15537 | 6 | – | inactive
CG15891 + CG15892 | DRSC18095 | 4 | – | inactive
CG15891 + CG15892 | DRSC18096 | 8 | – | inactive
Rrp40 | DRSC00074 | 10 | – | inactive
Fer2LCH | DRSC16672 | 10 | – | inactive
Fer2LCH | DRSC29169 | 4 | – | inactive

The list itself, from the first entry:
predicted target | amplicon | mitotic cells, replicate 1 | mitotic cells, replicate 2 | Call
RhoGEF3 | DRSC08351 | 4 | – | inactive
RhoGEF3 | DRSC08352 | 6 | – | inactive
Coq6 | DRSC03040 | 6 | – | inactive
Coq6 | DRSC29622 | 9 | – | inactive
RNF220 | DRSC15652 | 9 | – | inactive
RNF220 | DRSC28017 | 7 | – | inactive
Rrp46 | DRSC15537 | 6 | – | inactive
CG15891 + CG15892 | DRSC18095 | 4 | – | inactive
CG15891 + CG15892 | DRSC18096 | 8 | – | inactive
Rrp40 | DRSC00074 | 10 | – | inactive
Fer2LCH | DRSC16672 | 10 | – | inactive
Fer2LCH | DRSC29169 | 4 | – | inactive
PK2-R1 | DRSC16447 | 3 | – | inactive
PK2-R1 | DRSC24363 | 5 | – | inactive
CG4701 | DRSC01952 | 6 | – | inactive
Ctl2 | DRSC14423 | 6 | – | inactive
Ctl2 | DRSC29712 | 13 | – | inactive
CG6106 | DRSC19971 | 17 | – | inactive
CG6106 | DRSC29276 | – | – | inactive
CG14634 | DRSC17944 | 22 | – | inactive
CG31601 | DRSC03678 | 4 | – | inactive
Csl4 | DRSC02944 | 5 | – | inactive
Csl4 | DRSC22664 | 10 | – | inactive
CG1354 | DRSC17902 | 7 | – | inactive
CG5421 | DRSC02858 | 1 | – | inactive
CG5421 | DRSC24636 | 7 | – | inactive
CG31886 | DRSC03248 | 6 | – | inactive
CG31886 | DRSC27420 | 6 | – | inactive
Icmt | DRSC09834 | 2 | – | inactive
Ets65A | DRSC09968 | 6 | – | inactive
Ets65A | DRSC10738 | 4 | – | inactive
Ets65A | DRSC11164 | 14 | – | inactive
bif | DRSC18901 | 10 | – | inactive
bif | DRSC20313 | 15 | – | inactive
bif | DRSC28382 | 5 | – | inactive
Zip89B | DRSC16128 | 6 | – | inactive
Zip89B | DRSC29691 | 3 | – | inactive
Or69a | DRSC11243 | 7 | – | inactive
Or69a | DRSC25967 | 4 | – | inactive
Blm + CG14721 | DRSC14943 | 2 | – | inactive
sing | DRSC19530 | 7 | – | inactive
GABPI | DRSC00494 | 12 | – | inactive
GABPI | DRSC27495 | 7 | – | inactive
r + CG13012 | DRSC19531 | 13 | – | inactive
beat-Vb | DRSC12940 | 9 | – | inactive
beat-Vb | DRSC14844 | 9 | – | inactive
beat-Vb | DRSC14845 | 7 | – | inactive
CG14259 | DRSC14754 | 12 | – | inactive
CG6800 | DRSC16119 | 13 | – | inactive
rin | DRSC22997 | 16 | – | inactive
CG4259 | DRSC00645 | 9 | – | inactive
CG4259 | DRSC29614 | 3 | – | inactive
RpS28a | DRSC15064 | 10 | – | inactive
CG3281 | DRSC15470 | 14 | – | inactive
CG3281 | DRSC28414 | 7 | – | inactive
wuho | DRSC18101 | 13 | – | inactive
wuho | DRSC27950 | 8 | – | inactive
hlk | DRSC05021 | 5 | – | inactive
hlk | DRSC05022 | 9 | – | inactive
hlk | DRSC26150 | 4 | – | inactive
Tsf2 | DRSC09751 | 8 | – | inactive
CG30395 | DRSC03896 | 7 | – | inactive
Mrp4 | DRSC14931 | 3 | – | inactive
Mrp4 | DRSC28151 | 6 | – | inactive
CG6933 | DRSC10751 | 7 | – | inactive
CG3632 | DRSC19871 | 9 | – | inactive
Cyp4s3 | DRSC20241 | 12 | – | inactive
Cyp4s3 | DRSC22340 | 5 | – | inactive
Cyp4s3 | DRSC24027 | 7 | – | inactive
CG31717 | DRSC01121 | 11 | – | inactive
Ythdc1 | DRSC08141 | 6 | – | inactive
Cipc | DRSC14898 | 3 | – | inactive
Cipc | DRSC14900 | 8 | – | inactive
uex | DRSC20786 | 11 | – | inactive
uex | DRSC27422 | 6 | – | inactive
CG13539 | DRSC04181 | 10 | – | inactive
CG13539 | DRSC28683 | 2 | – | inactive
Spn77Bb + Spn77Bc | DRSC10689 | 4 | – | inactive
Spn77Bb + Spn77Bc | DRSC11793 | 7 | – | inactive
CG3081 | DRSC18571 | 12 | – | inactive
Hsp70Bc | DRSC16053 | 3 | – | inactive
Spn42Db | DRSC05009 | 7 | – | inactive
Atg8b | DRSC14501 | 13 | – | inactive
Atg8b | DRSC24428 | 8 | – | inactive
Sems | DRSC11626 | 5 | – | inactive
Sems | DRSC25887 | 8 | – | inactive
CG12170 | DRSC12199 | 7 | 14 | inactive
CG11437 | DRSC11659 | 4 | – | inactive
CG14625 | DRSC18633 | 5 | – | inactive
CG14625 | DRSC25191 | 7 | – | inactive
CG3288 | DRSC11745 | 6 | – | inactive
rad50 | DRSC04523 | 8 | – | inactive
cmb | DRSC09790 | 8 | – | inactive
cmb | DRSC25444 | 4 | – | inactive
CG10433 | DRSC04068 | 7 | – | inactive
CG10433 | DRSC26255 | 4 | – | inactive
CG15731 | DRSC19698 | 13 | – | inactive
CG15731 | DRSC21820 | 9 | – | inactive
CG15731 | DRSC26144 | 7 | – | inactive
CG12012 | DRSC08220 | 3 | – | inactive
CR42545 | DRSC03709 | 4 | – | inactive
Spec2 (retired record) | DRSC12258 | 2 | – | inactive
Spec2 (retired record) | DRSC22886 | 9 | – | inactive
TSG101 | DRSC11098 | 4 | – | inactive
CG12377 (retired record) | DRSC11671 | 5 | – | inactive
CG12377 (retired record) | DRSC11672 | 3 | – | inactive
bnb | DRSC20314 | 5 | – | inactive
bnb | DRSC27623 | 6 | – | inactive
CG16959 | DRSC10230 | 6 | – | inactive
CG9287 | DRSC03186 | 8 | – | inactive
CG9287 | DRSC22790 | 10 | – | inactive
